Literature values, collected in patent US20200129524A1, “PERSONALIZED CONTRACEPTIVE FORMULATIONS” (Agile Therapeutics, Inc., priority 2017, published 2020).
Some results were stated once for a whole list of compounds, not compound by compound.

molecular target: T1, SHBG (Homo sapiens, UniProt P04278); settings: testosterone being 100; cited from earlier work
T1 sequence (P04278 30-402): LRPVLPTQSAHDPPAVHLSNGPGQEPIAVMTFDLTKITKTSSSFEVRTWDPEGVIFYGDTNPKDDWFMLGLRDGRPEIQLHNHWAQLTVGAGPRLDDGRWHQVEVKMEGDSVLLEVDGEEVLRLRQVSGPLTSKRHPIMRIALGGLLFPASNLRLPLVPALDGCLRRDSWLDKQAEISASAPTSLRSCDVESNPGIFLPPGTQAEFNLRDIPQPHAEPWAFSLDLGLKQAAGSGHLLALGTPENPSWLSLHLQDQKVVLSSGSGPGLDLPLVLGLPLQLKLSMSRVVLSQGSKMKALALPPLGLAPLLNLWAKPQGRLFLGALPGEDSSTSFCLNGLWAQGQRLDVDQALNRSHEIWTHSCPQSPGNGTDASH

| Compound | relative binding affinity to SHBG |
| --- | --- |
| C#C[C@]1(O)CC[C@H]2[C@@H]3CCC4=CC(=O)CC[C@@H]4[C@H]3CC[C@@]21C [norethindrone] | less than 20% |
| C[C@]12CCC(=O)C=C1[C@@H]1C[C@@H]1[C@H]1[C@@H]3[C@@H]4C[C@@H]4[C@@]4(CCC(=O)O4)[C@@]3(C)CC[C@@H]12 [drospirenone] | less than 20% |
| C#C[C@]1(O)CC[C@H]2[C@@H]3CCC4=CCCC[C@@H]4[C@H]3CC[C@@]21C [lynestrerol] | less than 20% |
